The list shows a part of the results. The main result of the screen is listed elsewhere. These columns were measured beside it and carry no call. Compounds called inactive in the main read-out are mostly missing here. Potencies come from curve fits of mixed quality, noted in brackets.
Assay: qHTS Assay for Lipid Storage Modulators in Drosophila S3 Cells;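 for cell number change: cells counted by Cell Tracker Red CMTPX staining in the red channel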
Conditions: BODIPY lipid droplet fluorescence, 18-24 h; for cell number change: measured here: cell count max response, cells fed with added oleic acid
Method in brief: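 Drosophila S3 cells loaded with oleic acid (400 uM, as added) and compounds at several concentrations; lipid droplets imaged by 488-nm laser-scanning cytometry, 500–530 nm intensity and object ratio to cell channel. Percent activity normalized to 20 uM Triacsin C.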

[1] = measured here: lipid fluorescence (Fed channel) AC50, cells fed with added oleic acid
[2] = measured here: cell number channel AC50, cells fed with added oleic acid

SMILES | cell number change | AC50 [1] | AC50 [2]
CC(C)(C)NC(=O)c1cc(F)c(F)cc1Cl | -0.509% | 29.1 µM [falling, single point] | 
O=C(Nc1cc(Br)ccc1O)c1cc(-c2cccs2)on1 | 26.9% | 0.00517 µM [rising, full curve, poor fit] | 
Cc1cccc(NC(=O)c2cc3ccccc3nc2C)c1 | 51.1% |  | 14.6 µM [rising, partial curve]
N=c1ccn(Cc2ccccc2Cl)cc1 | -51.5% |  | 32.6 µM [falling, single point]
N#C/C(=C\c1ccco1)Sc1nc2ccccc2s1 | -3.59% |  | 
O=C1COc2ccc(C(=O)COC(=O)Cc3ccccc3F)cc2N1 | 7.92% | 0.146 µM [falling, full curve, poor fit] | 0.259 µM [falling, full curve, poor fit]
CN(Cc1nc2ccccc2c(=O)[nH]1)Cc1nc2ccsc2c(=O)[nH]1 | 16.9% | 4.11 µM [rising, single point] | 
Cc1cc(NC(=O)CSc2n[nH]c(N)n2)no1 | 7.79% |  | 
CCc1ccccc1Nc1cc(C(=O)NCc2ccccn2)c2ccccc2n1 | -5.24% |  | 0.00461 µM [rising, full curve, poor fit]
Cc1ccc(CN2CN(S(=O)(=O)c3cccs3)c3nc4ccccc4nc32)cc1 | -17.6% | 0.184 µM [falling, full curve] | 
CCN1CCN(CC(=O)Nc2c(OC)cccc2OC)CC1 | -14.6% | 29.1 µM [falling, single point] | 
O=C(O)c1ccccc1C(=O)N1N=C2/C(=C/c3cccc([N+](=O)[O-])c3)CCCC2C1c1cccc([N+](=O)[O-])c1 (stereo unspecified) | 28.7% | 32.6 µM [rising, single point] | 
CC(C)Oc1cccc(C(=O)C2CCCN(C(=O)c3noc4c3CCCC4)C2)c1 (stereo unspecified) | -46% | 25.9 µM [falling, partial curve] | 25.9 µM [falling, partial curve]
CCOc1ccc(N(CC(=O)NCC(C)C)S(C)(=O)=O)cc1 | -14.3% |  | 
CCOc1cc(/C=N/NC(=O)C(=O)NCc2ccc3c(c2)OCO3)ccc1OCC(=O)N1CCOCC1 | -1.22% | 7.31 µM [rising, partial curve, poor fit] | 
O=C(OCC(=O)c1cccs1)c1cccc(C(=O)OCC(=O)c2cccs2)n1 | 41.7% |  | 29.1 µM [rising, single point]
Cc1ccc(NC(=O)CN(C)CC(=O)Nc2ccc(N3CCOCC3)cc2)cc1F | 3.08% | 0.517 µM [falling, partial curve, poor fit] | 
CCOC(=O)N1CCN(C(=O)CSc2ncnc3sccc23)CC1 |  |  | 6.51 µM [rising, single point]
Cc1cc(N2CCOCC2)n2nc(C)c(-c3ccccc3)c2n1 | -7.97% |  | 
C[C@]12CCC[C@H](O1)[C@H]([C@@H](O)c1ccccc1)O2 | 6.88% | 4.11 µM [falling, single point] | 4.11 µM [falling, single point]
CCc1ccc([C@@H]2CC=C(C(=O)O)CN2S(=O)(=O)c2ccc(C)cc2)cc1 | -30.8% |  | 14.6 µM [falling, single point]
Cc1[nH]n(C(N)=S)c(=O)c1N=Nc1cc(C(F)(F)F)ccc1Cl | -0.185% |  | 

SMILES | cell number change | AC50 [1] | AC50 [2]
CCCCCCC1CC(CSC(=N)N)OC1=O (stereo unspecified) | 11.2% |  | 
Cc1ccccc1NC(=O)c1cc(C(=O)c2cc(Cl)ccc2O)cn(-c2ccccc2C)c1=O | -233% | 3.26 µM [rising, single point] | 29.1 µM [falling, partial curve]
O=C(Nc1nnc(-c2ccccc2)o1)C1CCCN1S(=O)(=O)c1cccs1 (stereo unspecified) | 0.803% |  | 
CC(C)c1c(O)nc(SCCOc2ccc(Cl)cc2)[nH]c1=O | 9.97% | 6.51 µM [rising, partial curve] | 
CCOC(=O)Cc1[nH]nc2c1C(c1cc(OC)ccc1OC)C(C#N)=C(N)O2 (stereo unspecified) | -8.84% |  | 
Fc1ccccc1COc1ccc(C(=S)N2CCCC2)cc1 | -10.1% | 18.4 µM [falling, single point] | 
CCN(CC(=O)Nc1cccc(OC)c1)CC(=O)Nc1ccc(C)cc1Cl | 16.9% | 0.184 µM [rising, full curve, poor fit] | 
O=C(NS(=O)(=O)Nc1ccc(Br)cn1)c1c[nH]c2ccccc12 | 16.1% |  | 
CC(=O)c1cc2c(cc1NC(=O)CSc1nnc(C)s1)OCO2 | -21.4% | 0.116 µM [rising, full curve, poor fit] | 
CCOC(=O)CCCNC(=O)c1cncc(O)c1 | -10.2% |  | 
CC1CCC(NC(=O)CNC(=O)Cc2cccc3ccccc23)CC1 (stereo unspecified) | 17.6% | 6.51 µM [falling, single point] | 
Cc1ccc(C)c(NC(=O)CSc2nc3nc(-c4cccs4)cc(C(F)(F)F)c3c(=O)[nH]2)c1 | 4.25% | 2.06 µM [rising, partial curve, poor fit] | 
COc1ccc(Cc2nc(-c3ccc(Br)o3)no2)cc1OC | -11.5% | 32.6 µM [falling, single point] | 
COc1ccc(C2C(C(=O)c3sc(C)nc3C)=C(O)C(=O)N2CCCn2ccnc2)cc1OC (stereo unspecified) |  | 1.16 µM [falling, single point] | 
Cc1ccc2c(CN3C(=O)NC4(CCCCC4)C3=O)cc(=O)oc2c1C | -4.39% |  | 
CCOC(=O)NC1(C(F)(F)F)N=C(c2ccccc2)NC1=O (stereo unspecified) | -6.98% | 25.9 µM [falling, single point] | 
O=C1CC(=O)C(n2cncn2)C(c2c(F)cccc2Cl)C1 (stereo unspecified) | 60.1% |  | 16.4 µM [rising, single point]
O=C1CCNc2cc3ccccc3cc21 | -41.9% | 1.16 µM [falling, partial curve] | 4.61 µM [falling, full curve, poor fit]
C(=N\c1nc2ccccc2n1CCN1CCOCC1)/c1cccs1 | 11.5% | 25.9 µM [rising, single point] | 
O=C(CSc1n[nH]c(-c2ccco2)n1)Nc1ccc(F)cc1 | 16.8% | 6.51 µM [falling, single point] | 
CN1CCN(S(=O)(=O)c2ccc(NCc3ccc4c(c3)OCO4)nc2)CC1 |  | 29.1 µM [rising, single point] | 
COc1nc(/C=C/N(C)C)c([N+](=O)[O-])c(OC)n1 | 4.34% | 0.00461 µM [rising, full curve, poor fit] | 

Single values from above:
cell number change, Cc1cc(NC(=O)CSc2n[nH]c(N)n2)no1 is entered as 7.79%
cell number change, Cc1cc(N2CCOCC2)n2nc(C)c(-c3ccccc3)c2n1 is entered as -7.97%
AC50 [1], CN(Cc1nc2ccccc2c(=O)[nH]1)Cc1nc2ccsc2c(=O)[nH]1 is entered as 4.11 µM [rising, single point]

(cont.)

SMILES | cell number change | AC50 [1] | AC50 [2]
CCCC(NC(=O)C(C)NC(=O)CO/N=C1\C=C2CCC3C4CCC(C(C)=O)[C@@]4(C)CCC3[C@@]2(C)CC1)C(=O)O (stereo partly specified) | 2.84% | 0.58 µM [falling, single point] | 
CCOc1ccc(N=CC2=C(O)CC(c3ccco3)CC2=O)cc1 (stereo unspecified) | 18.9% | 2.31 µM [rising, partial curve] | 
CC(C)CNC(=S)N(Cc1ccco1)Cc1cc2cc3c(cc2[nH]c1=O)OCCO3 | 0.114% |  | 
CC1=CC(C)(C)N2C(=O)C3(C(C#N)=C(N)OC4=C3C(=O)CC(C)(C)C4)c3cc(C)cc1c32 (stereo unspecified) | 51.6% | 0.517 µM [falling, full curve, poor fit] | 23.1 µM [rising, partial curve]
N#Cc1ccc(CSc2nnc(-c3cccs3)n2-c2ccccc2)cc1 |  | 1.84 µM [rising, partial curve] | 2.91 µM [rising, partial curve]
FC(F)(Cl)c1nnc2ccc(Cl)nn12 |  | 35.5 µM [rising, single point] | 
C=CCn1cc(C(=O)N2CCc3ccccc3C2)c(=O)c2cc(S(=O)(=O)N(CC)CC)ccc21 | 20.4% | 2.06 µM [rising, partial curve, poor fit] | 
COc1cccc(-c2ocnc2C(=O)Nc2ccc3c(c2)CCC3)c1 | 8.75% |  | 
CC(C)n1c(SC2C(=O)CC(C)(C)CC2=O)nc2c1c(=O)n(C)c(=O)n2C | -6.57% |  | 
O=C(/C=C/c1ccc2c(c1)OCO2)Nc1nc(-c2ccc(F)cc2F)cs1 | -43.6% | 0.116 µM [falling, full curve, poor fit] | 29.1 µM [falling, single point]
COc1ccc(/C(C)=N/NC(=O)CCC(=O)Nc2ccc(Cl)cc2Cl)c(OC)c1 | -0.639% | 18.4 µM [rising, partial curve] | 
Nc1ccc(N=Nc2ccccc2Cl)c(N)n1 | -23% | 29.1 µM [falling, single point] | 
CC(C)(C)NC(=O)NC(=O)CN1C(=O)NC(C)(c2ccccc2)C1=O (stereo unspecified) | 9.46% | 29.1 µM [falling, single point] | 
COC(=O)c1ccc(CSc2nc3ccc(Cl)cc3[nH]2)o1 |  |  | 2.59 µM [rising, single point]
O=C(Cc1nc(-c2ccc(Br)s2)cs1)NCCN1CCOCC1 | 4.07% |  | 
CN(C)C(=O)CSc1cccc2cccnc12 | -6.2% | 0.651 µM [falling, partial curve, poor fit] | 
CCOC(=O)CCc1nn(C)c(=O)c2ccccc12 | 30.5% |  | 6.51 µM [rising, partial curve]
CCN(CC)CCCNC(=O)c1csc(Nc2cccc3ccccc23)n1 | -4.5% | 0.82 µM [rising, single point] | 
COC(=O)c1[nH]c2ccccc2c1NS(=O)(=O)c1ccc(F)c(C)c1 | 3.65% | 6.51 µM [rising, single point] | 
Cc1cc(C)c(OCC(=O)OCC(=O)N2c3ccccc3CC2C)c(C)c1 (stereo unspecified) | -99.5% | 7.31 µM [rising, partial curve] | 20.6 µM [falling, single point]
